Reference: the supplement of paper PMC7666118
Some of the results follow.

Sequences of proteins named here, by UniProt entry; tags and fusion partners are left off. A change or cut given only in a name is not applied to a line headed by its entry.
UniProt O43824: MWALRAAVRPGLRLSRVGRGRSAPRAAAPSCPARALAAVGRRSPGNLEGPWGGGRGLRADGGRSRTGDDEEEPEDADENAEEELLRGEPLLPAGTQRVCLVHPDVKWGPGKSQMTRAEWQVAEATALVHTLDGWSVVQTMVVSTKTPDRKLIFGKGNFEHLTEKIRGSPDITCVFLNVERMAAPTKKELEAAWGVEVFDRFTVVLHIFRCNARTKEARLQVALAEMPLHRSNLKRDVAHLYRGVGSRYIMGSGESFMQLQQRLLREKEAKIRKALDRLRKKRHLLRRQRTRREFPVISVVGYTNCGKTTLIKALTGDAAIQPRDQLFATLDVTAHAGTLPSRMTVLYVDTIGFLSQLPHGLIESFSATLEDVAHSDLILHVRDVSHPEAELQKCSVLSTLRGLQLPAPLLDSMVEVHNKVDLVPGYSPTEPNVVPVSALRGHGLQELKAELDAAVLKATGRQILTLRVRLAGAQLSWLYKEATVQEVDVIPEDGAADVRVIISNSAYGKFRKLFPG
UniProt Q99729: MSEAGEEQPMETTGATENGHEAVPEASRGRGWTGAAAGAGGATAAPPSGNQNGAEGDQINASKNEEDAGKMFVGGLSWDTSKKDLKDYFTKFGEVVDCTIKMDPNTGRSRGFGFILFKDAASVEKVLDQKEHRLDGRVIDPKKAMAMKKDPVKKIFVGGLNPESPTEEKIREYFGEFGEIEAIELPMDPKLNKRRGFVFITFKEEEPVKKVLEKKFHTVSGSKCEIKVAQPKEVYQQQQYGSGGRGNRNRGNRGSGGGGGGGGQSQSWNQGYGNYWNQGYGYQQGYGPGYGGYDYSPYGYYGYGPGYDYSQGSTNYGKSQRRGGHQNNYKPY
UniProt Q9BRR8: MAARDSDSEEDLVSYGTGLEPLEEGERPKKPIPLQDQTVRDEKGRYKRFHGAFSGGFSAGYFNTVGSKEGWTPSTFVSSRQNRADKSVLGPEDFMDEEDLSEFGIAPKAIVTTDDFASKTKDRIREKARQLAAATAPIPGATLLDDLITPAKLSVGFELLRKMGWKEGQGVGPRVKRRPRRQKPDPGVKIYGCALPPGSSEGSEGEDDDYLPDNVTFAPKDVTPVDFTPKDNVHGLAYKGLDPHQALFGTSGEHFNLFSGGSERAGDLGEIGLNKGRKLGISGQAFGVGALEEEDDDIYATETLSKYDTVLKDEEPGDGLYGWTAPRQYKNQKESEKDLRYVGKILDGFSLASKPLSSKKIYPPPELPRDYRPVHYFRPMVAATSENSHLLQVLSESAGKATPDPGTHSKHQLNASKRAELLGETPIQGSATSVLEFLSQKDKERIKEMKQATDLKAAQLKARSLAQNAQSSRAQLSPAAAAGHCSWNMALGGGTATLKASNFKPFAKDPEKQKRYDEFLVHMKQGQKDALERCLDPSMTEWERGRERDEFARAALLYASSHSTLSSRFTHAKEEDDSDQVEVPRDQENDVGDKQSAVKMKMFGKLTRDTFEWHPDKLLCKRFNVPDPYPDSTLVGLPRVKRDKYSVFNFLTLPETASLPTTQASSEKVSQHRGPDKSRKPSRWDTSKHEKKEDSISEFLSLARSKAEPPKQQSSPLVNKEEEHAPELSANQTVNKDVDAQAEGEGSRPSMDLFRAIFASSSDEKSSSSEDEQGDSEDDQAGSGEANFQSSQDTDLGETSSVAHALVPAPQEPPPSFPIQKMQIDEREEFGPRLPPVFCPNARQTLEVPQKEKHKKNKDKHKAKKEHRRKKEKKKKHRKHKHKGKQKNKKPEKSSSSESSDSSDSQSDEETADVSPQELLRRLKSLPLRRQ
UniProt Q9NPR9: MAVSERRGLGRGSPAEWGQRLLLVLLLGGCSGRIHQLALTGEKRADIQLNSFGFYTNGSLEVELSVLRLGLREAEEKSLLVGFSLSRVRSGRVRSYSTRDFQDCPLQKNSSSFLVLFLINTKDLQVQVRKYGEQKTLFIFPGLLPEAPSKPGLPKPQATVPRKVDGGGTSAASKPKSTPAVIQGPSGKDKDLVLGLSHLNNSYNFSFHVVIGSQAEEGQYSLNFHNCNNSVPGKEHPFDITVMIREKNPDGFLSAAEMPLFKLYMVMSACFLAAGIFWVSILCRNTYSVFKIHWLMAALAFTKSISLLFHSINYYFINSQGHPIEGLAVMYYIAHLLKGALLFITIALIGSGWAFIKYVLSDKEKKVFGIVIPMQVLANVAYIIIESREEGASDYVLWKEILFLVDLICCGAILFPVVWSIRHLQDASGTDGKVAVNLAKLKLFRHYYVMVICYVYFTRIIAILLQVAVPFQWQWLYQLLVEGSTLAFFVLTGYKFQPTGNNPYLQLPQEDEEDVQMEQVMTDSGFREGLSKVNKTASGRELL
UniProt O00461: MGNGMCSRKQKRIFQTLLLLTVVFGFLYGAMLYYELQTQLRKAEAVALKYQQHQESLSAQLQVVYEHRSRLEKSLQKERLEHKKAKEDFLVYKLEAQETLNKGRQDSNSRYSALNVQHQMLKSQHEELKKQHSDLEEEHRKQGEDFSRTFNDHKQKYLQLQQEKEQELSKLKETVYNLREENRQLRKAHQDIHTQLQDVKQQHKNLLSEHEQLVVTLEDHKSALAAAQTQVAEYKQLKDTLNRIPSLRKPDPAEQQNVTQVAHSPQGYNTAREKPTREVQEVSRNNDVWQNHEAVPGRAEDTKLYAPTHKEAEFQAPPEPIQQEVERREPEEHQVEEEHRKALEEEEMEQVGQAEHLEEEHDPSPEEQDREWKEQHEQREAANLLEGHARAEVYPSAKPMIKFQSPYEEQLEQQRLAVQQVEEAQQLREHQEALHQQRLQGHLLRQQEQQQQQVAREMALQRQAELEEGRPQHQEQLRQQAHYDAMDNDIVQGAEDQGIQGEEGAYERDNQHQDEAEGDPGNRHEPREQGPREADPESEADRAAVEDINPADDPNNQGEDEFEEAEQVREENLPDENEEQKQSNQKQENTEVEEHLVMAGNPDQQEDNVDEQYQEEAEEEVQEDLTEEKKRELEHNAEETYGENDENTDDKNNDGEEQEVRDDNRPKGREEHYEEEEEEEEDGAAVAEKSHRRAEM
UniProt Q13439: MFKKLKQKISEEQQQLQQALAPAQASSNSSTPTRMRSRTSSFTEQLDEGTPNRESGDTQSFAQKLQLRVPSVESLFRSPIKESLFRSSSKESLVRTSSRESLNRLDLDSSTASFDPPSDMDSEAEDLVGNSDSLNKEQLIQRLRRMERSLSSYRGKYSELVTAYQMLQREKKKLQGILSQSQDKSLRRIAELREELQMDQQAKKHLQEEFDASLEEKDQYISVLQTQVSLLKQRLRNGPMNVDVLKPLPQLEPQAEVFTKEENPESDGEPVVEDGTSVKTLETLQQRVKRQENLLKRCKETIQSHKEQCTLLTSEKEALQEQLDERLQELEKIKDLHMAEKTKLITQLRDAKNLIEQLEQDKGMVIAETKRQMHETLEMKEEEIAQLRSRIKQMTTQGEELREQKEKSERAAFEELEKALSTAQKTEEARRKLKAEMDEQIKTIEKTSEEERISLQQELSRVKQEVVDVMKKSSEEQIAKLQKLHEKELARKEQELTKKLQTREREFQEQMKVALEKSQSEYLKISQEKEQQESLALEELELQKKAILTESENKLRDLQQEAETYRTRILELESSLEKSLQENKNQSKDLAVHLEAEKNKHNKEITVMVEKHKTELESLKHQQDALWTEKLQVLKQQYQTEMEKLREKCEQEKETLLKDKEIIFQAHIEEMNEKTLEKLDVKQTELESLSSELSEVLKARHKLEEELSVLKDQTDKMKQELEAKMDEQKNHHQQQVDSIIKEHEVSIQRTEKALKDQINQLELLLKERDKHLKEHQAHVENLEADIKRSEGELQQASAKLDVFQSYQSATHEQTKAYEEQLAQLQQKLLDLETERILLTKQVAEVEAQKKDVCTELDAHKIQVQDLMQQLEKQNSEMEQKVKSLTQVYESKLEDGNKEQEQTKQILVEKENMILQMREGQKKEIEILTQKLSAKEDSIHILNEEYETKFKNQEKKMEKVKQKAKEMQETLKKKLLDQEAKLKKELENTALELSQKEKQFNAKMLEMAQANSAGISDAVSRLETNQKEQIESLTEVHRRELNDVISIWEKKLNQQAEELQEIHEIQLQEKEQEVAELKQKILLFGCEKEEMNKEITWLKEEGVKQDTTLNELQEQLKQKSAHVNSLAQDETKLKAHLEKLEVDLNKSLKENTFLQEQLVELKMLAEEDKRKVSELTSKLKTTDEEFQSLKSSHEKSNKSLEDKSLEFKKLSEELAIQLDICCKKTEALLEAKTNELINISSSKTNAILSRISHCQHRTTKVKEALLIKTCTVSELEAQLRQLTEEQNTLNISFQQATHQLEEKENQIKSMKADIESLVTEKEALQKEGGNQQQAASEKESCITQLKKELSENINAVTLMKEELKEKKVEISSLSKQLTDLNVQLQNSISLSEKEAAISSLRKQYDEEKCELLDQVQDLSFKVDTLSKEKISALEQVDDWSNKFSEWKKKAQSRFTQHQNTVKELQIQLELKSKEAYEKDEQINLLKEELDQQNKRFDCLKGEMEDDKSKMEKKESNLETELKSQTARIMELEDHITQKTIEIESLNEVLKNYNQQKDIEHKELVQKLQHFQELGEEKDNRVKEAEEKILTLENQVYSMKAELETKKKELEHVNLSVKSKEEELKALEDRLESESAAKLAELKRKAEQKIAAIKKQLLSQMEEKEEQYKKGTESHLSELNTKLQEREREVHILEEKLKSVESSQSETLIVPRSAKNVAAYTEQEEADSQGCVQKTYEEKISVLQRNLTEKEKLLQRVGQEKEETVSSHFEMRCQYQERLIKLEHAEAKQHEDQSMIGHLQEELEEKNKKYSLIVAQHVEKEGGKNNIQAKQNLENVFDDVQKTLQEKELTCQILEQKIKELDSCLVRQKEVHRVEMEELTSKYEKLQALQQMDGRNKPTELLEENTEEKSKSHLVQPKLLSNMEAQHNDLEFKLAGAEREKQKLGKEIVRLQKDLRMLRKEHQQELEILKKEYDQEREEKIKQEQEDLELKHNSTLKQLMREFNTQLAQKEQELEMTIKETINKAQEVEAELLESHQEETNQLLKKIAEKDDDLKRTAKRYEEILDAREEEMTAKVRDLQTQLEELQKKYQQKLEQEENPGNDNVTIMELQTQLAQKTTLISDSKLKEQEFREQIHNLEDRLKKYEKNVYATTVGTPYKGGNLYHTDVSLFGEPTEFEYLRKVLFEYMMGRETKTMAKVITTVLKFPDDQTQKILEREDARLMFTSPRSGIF
UniProt P49841: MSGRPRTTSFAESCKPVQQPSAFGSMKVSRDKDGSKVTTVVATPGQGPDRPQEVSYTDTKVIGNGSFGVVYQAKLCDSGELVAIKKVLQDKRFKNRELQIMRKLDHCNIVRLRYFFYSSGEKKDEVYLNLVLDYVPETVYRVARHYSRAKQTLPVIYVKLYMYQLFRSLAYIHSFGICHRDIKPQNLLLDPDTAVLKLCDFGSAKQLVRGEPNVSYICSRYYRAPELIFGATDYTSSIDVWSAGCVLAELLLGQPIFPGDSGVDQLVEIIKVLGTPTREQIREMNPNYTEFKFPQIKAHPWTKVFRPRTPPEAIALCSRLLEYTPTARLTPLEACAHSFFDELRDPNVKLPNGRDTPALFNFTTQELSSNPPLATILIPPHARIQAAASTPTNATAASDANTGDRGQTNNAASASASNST
UniProt O15379: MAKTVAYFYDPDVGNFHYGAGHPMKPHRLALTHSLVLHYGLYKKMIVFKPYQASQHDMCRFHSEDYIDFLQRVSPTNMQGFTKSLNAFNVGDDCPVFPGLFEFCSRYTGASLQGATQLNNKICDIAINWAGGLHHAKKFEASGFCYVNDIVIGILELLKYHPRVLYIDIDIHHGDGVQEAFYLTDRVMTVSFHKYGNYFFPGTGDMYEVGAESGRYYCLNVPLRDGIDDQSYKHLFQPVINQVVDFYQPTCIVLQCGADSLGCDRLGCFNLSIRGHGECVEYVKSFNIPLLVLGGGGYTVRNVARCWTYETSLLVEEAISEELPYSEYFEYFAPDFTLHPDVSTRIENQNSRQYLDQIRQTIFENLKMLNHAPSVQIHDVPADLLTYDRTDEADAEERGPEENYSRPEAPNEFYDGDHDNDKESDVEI
UniProt Q9NZL4: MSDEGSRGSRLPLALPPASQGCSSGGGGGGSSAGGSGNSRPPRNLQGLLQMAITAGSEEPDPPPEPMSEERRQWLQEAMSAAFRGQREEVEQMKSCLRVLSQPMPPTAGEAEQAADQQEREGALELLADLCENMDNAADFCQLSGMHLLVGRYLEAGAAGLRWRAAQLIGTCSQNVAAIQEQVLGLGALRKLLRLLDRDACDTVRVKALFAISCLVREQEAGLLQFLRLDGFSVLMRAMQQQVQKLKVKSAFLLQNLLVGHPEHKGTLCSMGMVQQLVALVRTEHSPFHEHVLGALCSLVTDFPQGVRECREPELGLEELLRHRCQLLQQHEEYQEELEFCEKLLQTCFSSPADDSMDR

What follows are targets tested with COc1ccc(Cn2ccc3cc(C)c(C(=O)NO)cc32)cc1 (assay: dose-dependent thermal stabilisation call (2D-TPP, DLPTP, 10% FDR) (binary (1 = stabilised)); higher = stabilised by the compound). Conditions: system: HL-60 intact cells; concentration range 0.04-10 µM.
Procedure: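 2D thermal proteome profiling in intact HL-60 cells treated with BRD-3811 (0, 0.04, 0.29, 2, 10 uM) for 90 min at 37 C, then heated 3 min at one of 12 temperatures (42-63.9 C). Soluble protein was quantified by TMT10 MS. The value is the DLPTP call of the paper: dose-dependent thermal stabilisation over all temperatures at 10% FDR (F-test of a dose-response against a flat model); one experiment, one call per tested protein.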

Target | dose-dependent thermal stabilisation call
GTPBP6 (UniProt O43824) | inactive: 0
HNRNPAB (UniProt Q99729) | inactive: 0
GPATCH1 (UniProt Q9BRR8) | inactive: 0
GPR108 (UniProt Q9NPR9) | inactive: 0
GOLIM4 (UniProt O00461) | inactive: 0
GOLGA4 (UniProt Q13439) | inactive: 0
GSK3B (UniProt P49841) | inactive: 0
HDAC3 (UniProt O15379) | inactive: 0
HSPBP1 (UniProt Q9NZL4) | inactive: 0
